This is a noisy data set.
B1: human tRNA-Pro; a variant is named by its letters at N, in order (parent)
chain: GGCTCGTTGGTCTAGNGGTATGATTCTCGCTTAGGGTGCGAGAGGTCCCGGGTTCNNATCCCGGACGAGCCC

Legend:
[1] = variants of: B1; assay: tRNA Pol-III promoter activity, log2 (circRNA frequency / plasmid DNA frequency) (log2 ratio); higher = stronger promoter activity; conditions: HEK293T; construct: no Pol-II promoter ((-)CMV library)
[2] = variants of: B1; assay: tRNA 3' processing efficiency (processed reads / all reads, maximum-likelihood estimate) (fraction); higher = more efficient 3' processing; conditions: HEK293T; construct: no Pol-II promoter ((-)CMV library)
[3] = variants of: B1; assay: tRNA 5' processing efficiency (processed reads / all reads, maximum-likelihood estimate) (fraction); higher = more efficient 5' processing; conditions: HEK293T; construct: CMV Pol-II promoter ((+)CMV library, decapped)

Variant	tRNA Pol-III promoter activity (log2) [1]	tRNA 3' processing efficiency [2]	tRNA 5' processing efficiency [3]
ATA G15A A58C	5.25	0.4	
GTA T8A G17C	3.86	0.25	
GTA G50A	7.2	0.33	
GTA G15A G18A A58T	5.39	0.18	
GTA G17C T59G	4.94	0.25	
GTA G17C T59C	5.53	0.33	
GTA T8C G15C	2.12	0.25	
GTA G9T A14C G17A A20C	5.67	0.3	
GTA G17A A58G	2.41	0.43	
GTA G17A A58T	2.17	0.26	
GTA G17C G18A	3.62	0.5	
GTA G17A T53A A58G	4.93	0.8	
GTA G17T T53A	3.03	0.2	
GTA T8G G15A A20T A58C	3.62	0.25	
TTA G15A	4.51	0.47	
TTA G15T	5.88	0.57	
GTA G15A T19A	3.61	0.25	
GTA T8A A58T	3.55	0.4	
GTA G15T A20T	1.93	0.25	
GTA G17T T19G	4.32	0.77	
GTA T8C T54C	3.72	0.17	
GTA T8C A14T	4.53	0.2	
GTA T8C A58C	4.03	0.17	

Variant	tRNA Pol-III promoter activity (log2) [1]	tRNA 3' processing efficiency [2]	tRNA 5' processing efficiency [3]
GTA T8C A58T	4.57	0.25	
GTA T8C A58G	3.77	0.27	
GTA T8C T19G	3.3	0.33	
GTA T8C T19C	5.94	0.7	
GTA G15A T54A	5.93	0.5	
GTA G17C T19A A20G	7.1	0.44	
GTA G15C G17T A20T	6.51	0.17	
GTA G18A T19A A58G	4.93	0.17	
GTA G15A T53A	3.77	0.38	
GTA G18A A58T	3.24	0.5	
GTA G18A A58C	2.67	0.2	
CTA G15A T59A	4.36	0.25	
ATA G9T A58G	6.36	0.2	
GTA G34A	7.25	0.5	
GTA G15T G18C T19C A58T	4.03	0.33	
GTA G17T A20G	3.46	0.6	
GTA T8G G15C A58G	6.1	0.11	
GTA G15A A58C	3.94	0.25	
GTA G15A A58T	3.94	0.38	
TTA G15A A58T T59A	7.93	0.13	
GTA G15T G18A A58T	5.74	0.57	
GTA G18T T53A	6.26	0.4	
CTA G15C C55T	5.93	0.25	

Variant	tRNA Pol-III promoter activity (log2) [1]	tRNA 3' processing efficiency [2]	tRNA 5' processing efficiency [3]
GTA T8G G15C T53A C55T T59G	4.68	0.4	
GTA T8C T59C	6.05	0.15	
GTA T8C T59G	3.24	0.17	
CTA G15T	3.61	0.13	
CTA G15A	3.93	0.6	
TTA G15A T19G	5.25	0.4	
GTA T8G A14T	0.884	0.25	
GTA T8G A14G	2.76	0.25	
GTA G18T T59A	2.3	0.67	
CTA G9T	3.51	0.67	
GTA G15C T59A	6.73	0.23	
GTA G15T G18T	4.45	0.5	
GTA T8C T19G C55G	3.21	0.33	
TTA G18A	4.19	0.33	
CTA T8G	4.36	0.4	
GTA G15C G17C	4.91	0.15	
GTA G15C G17T	3.36	0.33	
CTA G18T	2.37	0.5	
GTA T8A A20G	3.62	0.25	
GTA G17C A20T A58T	4.36	0.25	
ATA G17T	4.17	0.46	
GTA G17T A58T	2.81	0.49	
GTA G17T A58G	2.67	0.29	

Variant	tRNA Pol-III promoter activity (log2) [1]	tRNA 3' processing efficiency [2]	tRNA 5' processing efficiency [3]
GTA G17T A58C	3.33	0.37	
CTA G9T A58C	4.26	0.4	
ATA G15T A58G	4.36	0.25	
GTA G18A A20C	4.71	0.75	0.25
GTA G18A A20T	6.26	0.6	
GTA G15C A58G	2.8	0.17	
GTA G15C A58T	2.9	0.22	
CTA G17T	3.55	0.2	
GTA T8C G9A A58G	8.94	0.27	
GTA G9C G15A T59G	3.53	0.33	
GTA G15T T53G	3.93	0.25	
GTA G17A T19G A58T	5.25	0.2	
GTA G17A A20T A58C	5.84	0.29	
GTA G18C	0.709	0.4	
GTA G18A	-0.101	0.37	
GTA G18T	0.149	0.22	0.5
GTA G17C A58T	2.78	0.38	
GTA G17C A58G	5.02	0.17	
ATA G15A	2.72	0.17	
GTA G17C A20T	4.52	0.57	
GTA G15T A58G	3.05	0.43	
GTA G9T G15T C55T T59C	3.38	0.71	
GTA T8G G15C	3.25	0.2	

Variant	tRNA Pol-III promoter activity (log2) [1]	tRNA 3' processing efficiency [2]	tRNA 5' processing efficiency [3]
GTA G17A	0.0226	0.22	
GTA G17C	1.42	0.41	
GTA G17T	1.15	0.34	
CTA G17C T19C T54A T59A	5.16	0.71	
GTA G18C A20T	3.61	0.75	
GTA G15A T59G	4.14	0.23	
CTA G15A A58T	6.94	0.13	
GTA G9T A58C	1.93	0.25	
GTA T8C C55T	5.87	0.04	
TTA T8C A58T	7.51	0.5	
GTA T8G A20G	1.62	0.4	
TTA G15A A58T	9.42	0.04	
GTA G17A G18C	1.66	0.5	
GTA T8G	-0.583	0.29	
GTA T8A	0.524	0.32	
GTA T8C	0.786	0.37	
GTA G15C	1.34	0.55	
GTA G15T	-0.23	0.36	
GTA G15A	0.555	0.19	
GTA G15T G17A A58C	4.15	0.43	
GTA G18T T19C A58T	5.16	0.14	
ATA G18A A20G	5.94	0.25	
ATA G17A A20C	3.71	0.25	

Some of the entries so far, field by field.
GTA G9T A58C
  tRNA Pol-III promoter activity (log2) [1] = 1.93; tRNA 3' processing efficiency [2] = 0.25
GTA T8C C55T
  tRNA Pol-III promoter activity (log2) [1] = 5.87; tRNA 3' processing efficiency [2] = 0.04
TTA T8C A58T
  tRNA Pol-III promoter activity (log2) [1] = 7.51; tRNA 3' processing efficiency [2] = 0.5

— the supplement of paper PMC6445147
